In PubChem BioAssay (Tox21):
Inconclusive means that the source gave no clear call. Such entries were picked first, then a sample of the others. For some of these results: Potencies of inconclusive entries are doubtful fits and often do not repeat. Calls of active or inactive are those of the source. Unless noted, calls come from the whole dose curve.

Amino acid sequences for entries named in this document (tags omitted). A change or cut given only in a name is not applied to a line headed by its entry.
UniProt P14416, whole entry, looked up: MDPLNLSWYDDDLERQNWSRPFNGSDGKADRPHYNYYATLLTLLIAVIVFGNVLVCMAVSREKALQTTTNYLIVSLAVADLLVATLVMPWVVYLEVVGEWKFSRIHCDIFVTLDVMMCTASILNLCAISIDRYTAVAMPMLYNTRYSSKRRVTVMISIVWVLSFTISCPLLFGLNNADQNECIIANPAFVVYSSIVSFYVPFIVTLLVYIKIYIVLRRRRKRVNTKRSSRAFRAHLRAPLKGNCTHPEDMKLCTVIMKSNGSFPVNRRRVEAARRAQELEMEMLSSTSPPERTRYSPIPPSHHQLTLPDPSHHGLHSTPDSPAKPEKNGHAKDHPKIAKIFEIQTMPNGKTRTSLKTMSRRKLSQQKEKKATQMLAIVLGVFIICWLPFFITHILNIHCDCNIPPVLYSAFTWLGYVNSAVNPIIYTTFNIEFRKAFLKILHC
UniProt P28223, whole entry, looked up: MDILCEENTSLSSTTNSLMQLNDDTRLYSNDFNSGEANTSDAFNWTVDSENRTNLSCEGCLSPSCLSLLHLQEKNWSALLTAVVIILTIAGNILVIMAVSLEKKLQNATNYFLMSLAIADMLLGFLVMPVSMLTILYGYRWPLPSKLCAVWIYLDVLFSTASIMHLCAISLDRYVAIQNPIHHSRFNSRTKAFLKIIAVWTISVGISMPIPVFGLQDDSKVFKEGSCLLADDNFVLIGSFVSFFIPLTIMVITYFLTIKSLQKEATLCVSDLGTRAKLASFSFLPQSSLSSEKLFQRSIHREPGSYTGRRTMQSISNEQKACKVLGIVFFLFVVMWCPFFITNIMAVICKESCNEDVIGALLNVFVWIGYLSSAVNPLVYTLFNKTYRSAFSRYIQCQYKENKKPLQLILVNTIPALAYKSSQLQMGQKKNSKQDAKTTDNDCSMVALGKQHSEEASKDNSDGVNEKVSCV
UniProt P11229: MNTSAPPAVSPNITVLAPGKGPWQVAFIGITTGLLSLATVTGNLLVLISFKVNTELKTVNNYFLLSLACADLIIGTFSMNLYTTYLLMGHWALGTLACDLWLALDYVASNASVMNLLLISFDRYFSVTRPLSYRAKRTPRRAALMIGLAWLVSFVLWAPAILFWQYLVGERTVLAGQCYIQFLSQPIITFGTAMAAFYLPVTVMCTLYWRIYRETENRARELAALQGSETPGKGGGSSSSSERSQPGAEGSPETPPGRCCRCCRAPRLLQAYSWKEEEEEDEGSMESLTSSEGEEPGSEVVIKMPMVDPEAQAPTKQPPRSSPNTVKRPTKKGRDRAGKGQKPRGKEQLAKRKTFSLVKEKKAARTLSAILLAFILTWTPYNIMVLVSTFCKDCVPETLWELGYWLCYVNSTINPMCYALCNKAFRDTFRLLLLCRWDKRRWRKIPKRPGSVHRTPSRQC

Columns and labels:
[1] = Nuclear factor erythroid 2-related factor 2/antioxidant responsive element (Nrf2/ARE) small molecule agonists: luciferase reporter gene qHTS assay in human keratinocytes (AID 1919969); details: KeratinoSens HaCaT ARE-luciferase, luminescence, 24 h; activity, positive = activation: at 92.4 µM (top of the series); note: potency is the fitted concentration of half-maximal effect; nearly all actives have a fitted effect of over 35% in size
[2] = p53 small molecule agonists, cell-based qHTS assay (AID 1963582; active = well fitted activation curve with a large enough effect in the signal ratio in the repeat runs, not every such curve was filed as active; inconclusive = weak or mixed curves; the % refers to the signal ratio; note: potency is the fitted concentration of half-maximal effect); details: HCT-116 p53RE-bla reporter, beta-lactamase FRET ratio, 16 h; activation: at 66 µM (top of the series) unless noted
How it was run: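 Compounds are pin-transferred in DMSO onto p53RE-bla cells and incubated 16 h at 37 C. The B/G FRET beta-lactamase substrate is then applied for 2 h at RT and fluorescence recorded.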

[3] = cAMP Responsive Elements (CRE) small molecule antagonists, cell-based qHTS assay (AID 1963591; active = well fitted inhibition curve with a large enough effect in the signal ratio in the repeat runs, not every such curve was filed as active; inconclusive = weak or mixed curves, or effect the other way; the % refers to the signal ratio; note: potency is the fitted concentration of half-maximal effect; for activity change, negative = inhibition: % is set by controls: 0 for no effect and ±100 for the full control effect); details: CRE-bla HEK293T, beta-lactamase FRET ratio; activity change, negative = inhibition: at 92.4 µM (top of the series) unless noted
How it was run: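 Inhibition of NKH477-driven (0.25 uM final) CRE-beta-lactamase signal in HEK293T cells, 3 h compound exposure at 37 °C, detected by FRET substrate fluorescence.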

[4] = target: Beta-2 adrenergic receptor (Homo sapiens) (UniProt P07550); assay: Adrenergic beta2 receptor (ADRB2) small molecule antagonists, cell-based qHTS assay (AID 1963592); details: CHO-ADRB2 cells, isoproterenol-stimulated cAMP HTRF ratio, 0.5 h; activity change, negative = inhibition: at 92.4 µM (top of the series) unless noted; note: % is set by controls: 0 for no effect and ±100 for the full control effect; nearly all actives have a fitted effect of over 50% in size
How it was run: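 Cells (CHO, stable ADRB2 overexpression) incubated 18-20hr at 37C; compounds added from DMSO; agonist mix (1nM isoproterenol, 100uM IBMX, 25uM Ro-20-1724) added; 0.5hr RT; d2-cAMP and anti-cAMP-cryptate added; 1hr RT; 665/615 nm read.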

[5] = target: Beta-2 adrenergic receptor (Homo sapiens) (UniProt P07550); assay: Adrenergic beta2 receptor (ADRB2) small molecule agonists, cell-based qHTS assay (AID 1963593); details: CHO-ADRB2 cells, cAMP HTRF, 30 min; activation: at 92.4 µM (top of the series) unless noted; note: potency is the fitted concentration of half-maximal effect;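 for activation: CHO cells stably overexpressing human ADRB2; % is set by controls: 0 for no effect and ±100 for the full control effect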
How it was run: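 CHO cells stably over-expressing ADRB2 were plated overnight at 37C, then dosed with compounds plus a stimulation mix containing 100uM IBMX and 25uM Ro-20-1724 for 0.5hr at room temperature. cAMP was measured by HTRF competition, 1hr.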

[6] = target: D(2) dopamine receptor (Homo sapiens) (UniProt P14416); assay: Dopamine D2 receptor (DRD2) small molecule agonists, cell-based qHTS assay (AID 1963594); details: HEK293-DRD2 cAMP HTRF, agonist mode, 30 min; activation: at 92.4 µM (top of the series) unless noted; note: % is set by controls: 0 for no effect and ±100 for the full control effect; nearly all actives have a fitted effect of over 35% in size
How it was run: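 HEK293 cells stably expressing DRD2 were cultured 24 h at 37 C, then given Ro20-1724 (0.1 mM final) and compounds for 10 min at room temperature. NKH477 (200nM) was then added for 30 min. cAMP was read by HTRF.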

[7] = target: D(2) dopamine receptor (Homo sapiens) (UniProt P14416); assay: Dopamine D2 receptor (DRD2) small molecule antagonists, cell-based qHTS assay (AID 1963595; active = well fitted inhibition curve with a large enough effect in the signal ratio in the repeat runs, with a control signal flat; inconclusive = weak or mixed curves, or effect the other way; the % refers to the signal ratio; note: potency is the fitted concentration of half-maximal effect; for activity change, negative = inhibition: % is set by controls: 0 for no effect and ±100 for the full control effect); details: HEK293-DRD2 cAMP HTRF antagonist mode; activity change, negative = inhibition: at 92.4 µM (top of the series) unless noted
How it was run: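 Stable D2 receptor HEK293 line, 24 h after seeding. Compound preincubated 10 min, then quinpirole (12 nM) with forskolin analogue NKH477 (200 nM), 30 min, room temperature. Detection by time-resolved FRET of cAMP.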

[8] = cAMP Responsive Elements (CRE) small molecule agonists, cell-based qHTS assay (AID 1963590); details: CRE-bla HEK293T, beta-lactamase FRET ratio, 3 h; activation: at 92.4 µM (top of the series) unless noted; note: potency is the fitted concentration of half-maximal effect; for activation: % is set by controls: 0 for no effect and ±100 for the full control effect
How it was run: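 Cell line: CRE-bla HEK 293T; medium DMEM/10% dialyzed FBS/0.1 mM NEAA/1 mM pyruvate/25 mM HEPES; 3 h compound exposure; beta-lactamase FRET readout after 2 h substrate loading at RT.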

[9] = target: 5-hydroxytryptamine receptor 2A (Homo sapiens) (UniProt P28223); assay: 5-hydroxytryptamine receptor 2A (HTR2A) small molecule antagonists, cell-based qHTS assay (AID 1963586); note: potency is the fitted concentration of half-maximal effect; nearly all actives have a fitted effect of over 45% in size
How it was run: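 Antagonist-mode intracellular calcium assay: DOI (4 nM) added after 5 min compound pre-incubation at room temperature to dye-loaded HTR2A-CHO cells. Fluorescence followed for 3 min, sampled every second.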

[10] = target: Muscarinic acetylcholine receptor M1 (Homo sapiens) (UniProt P11229); assay: Cholinergic receptor muscarinic 1 (CHRM1) small molecule agonists, cell-based qHTS assay (AID 1963589); note: potency is the fitted concentration of half-maximal effect; nearly all actives have a fitted effect of over 35% in size
How it was run: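 Each compound was tested at 15 concentrations across three independent runs on dye-loaded CHO cells stably expressing human CHRM1, reading intracellular calcium fluorescence kinetically at 1 sec intervals.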

Brc1cc2ccccc2c2ccccc12
Potency [1]: inconclusive: 15.5 µM [activator, single point]
Potency [2]: inconclusive: 46.1 µM [activator, single point]
activity change, negative = inhibition [3]: inconclusive: -0.0193%
activity change, negative = inhibition [4]: inconclusive: 6.62%
activation [5]: inconclusive: 28.4%
Potency [6]: inactive
Potency [7]: inactive

CC1(C)[C@H]2CC[C@]1(C)C(=O)C2
Potency [1]: active: 68.6 µM
Potency [2]: inconclusive: 51.3 µM [activator, partial curve, poor fit]
Potency [8]: inconclusive: 54.5 µM [rising, partial curve, poor fit]
Potency [5]: inactive

ICCc1ccccc1
Potency [1]: active: 67.2 µM
Potency [2]: inconclusive: 50.3 µM [rising, single point]
Potency [8]: inactive
activity change, negative = inhibition [3]: inconclusive: -28.3%
activation [5]: inconclusive: -34.8%

O=C1CCCC(=O)O1
Potency [1]: inconclusive: 68.6 µM [activator]
Potency [2]: inactive
Potency [8]: inactive
activity change, negative = inhibition [3]: inconclusive: -11.6%
activation [5]: inconclusive: 0.612%

N/C(=N\N=C\c1ccc(Cl)cc1)N/N=C/c1ccc(Cl)cc1
Potency [1]: inconclusive: 13.3 µM [activator, single point]
Potency [2]: inactive
Potency [8]: inconclusive: 15 µM [rising, partial curve]
Potency [3]: inconclusive: 16.8 µM [activator, partial curve]
Potency [7]: inconclusive: 33.5 µM [inhibitor, single point]

CC1=Nc2ccc3ccccc3c2C1(C)C
Potency [1]: active: 68.6 µM
Potency [2]: inconclusive: 45.8 µM [rising, single point]
Potency [9]: inconclusive: 2.98 µM [inhibitor, full curve, poor fit]
Potency [10]: inconclusive: 19.5 µM [rising, full curve, poor fit]
Potency [8]: inconclusive: 68.6 µM [rising, single point]
Potency [3]: inconclusive: 61.1 µM [rising, partial curve]
activity change, negative = inhibition [4]: inconclusive: -28.7%
Potency [5]: inconclusive: 27.3 µM [inhibitor, partial curve]
